# Assay results as given in the supplement of paper PMC10849652.
# The chains behind the UniProt entries cited, without tags or fusion partners. Where a name states a change or a piece, a line headed by the entry shows the natural chain unless it says otherwise.
# UniProt Q9Y6I9: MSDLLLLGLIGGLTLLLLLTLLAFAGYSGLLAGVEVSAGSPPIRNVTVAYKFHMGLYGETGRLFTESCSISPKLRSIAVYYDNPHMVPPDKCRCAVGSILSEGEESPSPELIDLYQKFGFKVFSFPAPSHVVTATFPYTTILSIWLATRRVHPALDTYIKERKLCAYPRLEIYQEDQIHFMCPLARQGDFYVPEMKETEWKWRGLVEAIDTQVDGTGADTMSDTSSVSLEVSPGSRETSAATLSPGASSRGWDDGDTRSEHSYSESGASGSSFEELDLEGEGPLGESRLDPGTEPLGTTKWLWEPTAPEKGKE
# UniProt Q9C0B7: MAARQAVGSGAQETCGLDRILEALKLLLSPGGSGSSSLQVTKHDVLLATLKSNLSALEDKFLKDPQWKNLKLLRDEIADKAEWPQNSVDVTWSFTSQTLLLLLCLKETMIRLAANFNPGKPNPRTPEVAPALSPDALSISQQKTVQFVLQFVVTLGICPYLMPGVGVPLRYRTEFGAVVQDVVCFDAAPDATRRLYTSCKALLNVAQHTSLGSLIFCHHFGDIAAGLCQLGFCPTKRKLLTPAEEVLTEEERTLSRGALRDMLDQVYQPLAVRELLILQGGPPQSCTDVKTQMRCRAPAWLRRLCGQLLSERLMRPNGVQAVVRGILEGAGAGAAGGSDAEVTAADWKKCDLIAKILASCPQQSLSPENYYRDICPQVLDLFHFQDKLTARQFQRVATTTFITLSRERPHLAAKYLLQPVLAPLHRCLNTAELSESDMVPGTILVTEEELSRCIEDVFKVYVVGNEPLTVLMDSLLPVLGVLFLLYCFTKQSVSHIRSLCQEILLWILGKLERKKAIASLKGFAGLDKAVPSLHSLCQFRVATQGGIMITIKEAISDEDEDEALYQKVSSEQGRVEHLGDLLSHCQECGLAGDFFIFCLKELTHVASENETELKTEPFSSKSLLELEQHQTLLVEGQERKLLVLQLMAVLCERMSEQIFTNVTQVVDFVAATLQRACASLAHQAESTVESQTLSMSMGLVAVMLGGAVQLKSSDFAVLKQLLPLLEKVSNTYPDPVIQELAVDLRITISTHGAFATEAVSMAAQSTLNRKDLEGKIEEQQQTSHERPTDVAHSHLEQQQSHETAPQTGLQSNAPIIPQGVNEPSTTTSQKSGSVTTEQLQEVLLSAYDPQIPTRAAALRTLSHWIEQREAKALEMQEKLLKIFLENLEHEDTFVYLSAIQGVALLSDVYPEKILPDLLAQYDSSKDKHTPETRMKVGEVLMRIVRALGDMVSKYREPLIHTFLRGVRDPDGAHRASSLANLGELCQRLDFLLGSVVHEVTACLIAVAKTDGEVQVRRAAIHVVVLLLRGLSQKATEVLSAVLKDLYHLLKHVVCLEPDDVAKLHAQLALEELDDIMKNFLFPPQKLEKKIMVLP
# UniProt Q9Y6J9: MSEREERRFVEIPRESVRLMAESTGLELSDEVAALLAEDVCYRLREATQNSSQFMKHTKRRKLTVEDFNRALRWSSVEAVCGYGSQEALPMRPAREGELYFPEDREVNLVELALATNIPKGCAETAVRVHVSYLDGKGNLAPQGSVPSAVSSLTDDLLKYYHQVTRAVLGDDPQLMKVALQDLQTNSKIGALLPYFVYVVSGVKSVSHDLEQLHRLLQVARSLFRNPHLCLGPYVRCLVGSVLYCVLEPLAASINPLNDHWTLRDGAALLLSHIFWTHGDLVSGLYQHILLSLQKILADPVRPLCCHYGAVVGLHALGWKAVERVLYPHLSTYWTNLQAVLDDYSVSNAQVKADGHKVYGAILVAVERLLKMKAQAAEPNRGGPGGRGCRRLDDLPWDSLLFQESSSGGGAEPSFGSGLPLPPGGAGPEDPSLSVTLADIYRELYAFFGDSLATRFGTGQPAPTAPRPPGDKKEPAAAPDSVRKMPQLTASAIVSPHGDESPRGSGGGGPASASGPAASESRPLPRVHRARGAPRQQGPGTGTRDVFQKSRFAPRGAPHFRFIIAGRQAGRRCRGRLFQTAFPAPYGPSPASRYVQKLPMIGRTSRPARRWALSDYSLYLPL
# UniProt Q9BW92: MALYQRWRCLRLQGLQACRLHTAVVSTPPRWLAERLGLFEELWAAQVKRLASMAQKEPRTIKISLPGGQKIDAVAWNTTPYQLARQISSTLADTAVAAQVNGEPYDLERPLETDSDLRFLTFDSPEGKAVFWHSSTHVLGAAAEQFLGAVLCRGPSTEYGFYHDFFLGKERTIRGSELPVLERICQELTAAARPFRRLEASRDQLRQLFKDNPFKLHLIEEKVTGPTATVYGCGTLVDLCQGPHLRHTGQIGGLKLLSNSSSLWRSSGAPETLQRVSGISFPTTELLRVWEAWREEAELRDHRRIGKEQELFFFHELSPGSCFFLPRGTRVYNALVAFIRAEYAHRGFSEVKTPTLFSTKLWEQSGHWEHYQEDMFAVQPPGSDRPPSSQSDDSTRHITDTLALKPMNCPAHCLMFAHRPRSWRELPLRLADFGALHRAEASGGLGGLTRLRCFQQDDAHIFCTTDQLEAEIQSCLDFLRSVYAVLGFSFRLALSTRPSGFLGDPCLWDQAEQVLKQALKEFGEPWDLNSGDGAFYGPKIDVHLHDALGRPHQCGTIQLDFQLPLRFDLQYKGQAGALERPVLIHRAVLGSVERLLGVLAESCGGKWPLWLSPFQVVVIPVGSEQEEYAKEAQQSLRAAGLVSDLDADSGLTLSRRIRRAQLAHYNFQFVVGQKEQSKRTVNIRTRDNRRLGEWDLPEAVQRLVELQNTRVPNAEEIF
# UniProt Q9NU19: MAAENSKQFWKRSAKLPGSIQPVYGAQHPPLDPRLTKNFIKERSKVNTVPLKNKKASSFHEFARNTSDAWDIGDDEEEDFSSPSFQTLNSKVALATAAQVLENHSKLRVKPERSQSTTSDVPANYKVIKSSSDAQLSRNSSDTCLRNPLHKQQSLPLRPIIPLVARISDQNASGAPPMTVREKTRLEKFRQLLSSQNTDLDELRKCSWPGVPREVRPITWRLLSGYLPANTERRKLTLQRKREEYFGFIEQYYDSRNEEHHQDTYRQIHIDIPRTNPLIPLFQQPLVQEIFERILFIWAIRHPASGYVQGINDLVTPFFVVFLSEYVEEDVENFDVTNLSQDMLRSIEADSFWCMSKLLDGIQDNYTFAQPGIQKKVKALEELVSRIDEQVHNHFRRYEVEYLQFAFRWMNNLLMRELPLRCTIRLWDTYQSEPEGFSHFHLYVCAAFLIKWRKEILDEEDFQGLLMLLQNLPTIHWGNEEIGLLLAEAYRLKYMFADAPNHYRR
# UniProt Q9NZ01: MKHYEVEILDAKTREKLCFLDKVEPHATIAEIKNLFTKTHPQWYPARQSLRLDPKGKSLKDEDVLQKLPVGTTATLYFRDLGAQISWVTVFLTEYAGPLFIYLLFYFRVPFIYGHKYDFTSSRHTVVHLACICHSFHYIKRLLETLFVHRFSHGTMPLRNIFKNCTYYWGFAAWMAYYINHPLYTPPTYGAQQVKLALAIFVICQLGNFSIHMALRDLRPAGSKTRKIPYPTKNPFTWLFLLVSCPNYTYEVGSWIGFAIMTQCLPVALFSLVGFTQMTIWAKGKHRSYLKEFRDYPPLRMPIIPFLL
# UniProt Q8NFU7: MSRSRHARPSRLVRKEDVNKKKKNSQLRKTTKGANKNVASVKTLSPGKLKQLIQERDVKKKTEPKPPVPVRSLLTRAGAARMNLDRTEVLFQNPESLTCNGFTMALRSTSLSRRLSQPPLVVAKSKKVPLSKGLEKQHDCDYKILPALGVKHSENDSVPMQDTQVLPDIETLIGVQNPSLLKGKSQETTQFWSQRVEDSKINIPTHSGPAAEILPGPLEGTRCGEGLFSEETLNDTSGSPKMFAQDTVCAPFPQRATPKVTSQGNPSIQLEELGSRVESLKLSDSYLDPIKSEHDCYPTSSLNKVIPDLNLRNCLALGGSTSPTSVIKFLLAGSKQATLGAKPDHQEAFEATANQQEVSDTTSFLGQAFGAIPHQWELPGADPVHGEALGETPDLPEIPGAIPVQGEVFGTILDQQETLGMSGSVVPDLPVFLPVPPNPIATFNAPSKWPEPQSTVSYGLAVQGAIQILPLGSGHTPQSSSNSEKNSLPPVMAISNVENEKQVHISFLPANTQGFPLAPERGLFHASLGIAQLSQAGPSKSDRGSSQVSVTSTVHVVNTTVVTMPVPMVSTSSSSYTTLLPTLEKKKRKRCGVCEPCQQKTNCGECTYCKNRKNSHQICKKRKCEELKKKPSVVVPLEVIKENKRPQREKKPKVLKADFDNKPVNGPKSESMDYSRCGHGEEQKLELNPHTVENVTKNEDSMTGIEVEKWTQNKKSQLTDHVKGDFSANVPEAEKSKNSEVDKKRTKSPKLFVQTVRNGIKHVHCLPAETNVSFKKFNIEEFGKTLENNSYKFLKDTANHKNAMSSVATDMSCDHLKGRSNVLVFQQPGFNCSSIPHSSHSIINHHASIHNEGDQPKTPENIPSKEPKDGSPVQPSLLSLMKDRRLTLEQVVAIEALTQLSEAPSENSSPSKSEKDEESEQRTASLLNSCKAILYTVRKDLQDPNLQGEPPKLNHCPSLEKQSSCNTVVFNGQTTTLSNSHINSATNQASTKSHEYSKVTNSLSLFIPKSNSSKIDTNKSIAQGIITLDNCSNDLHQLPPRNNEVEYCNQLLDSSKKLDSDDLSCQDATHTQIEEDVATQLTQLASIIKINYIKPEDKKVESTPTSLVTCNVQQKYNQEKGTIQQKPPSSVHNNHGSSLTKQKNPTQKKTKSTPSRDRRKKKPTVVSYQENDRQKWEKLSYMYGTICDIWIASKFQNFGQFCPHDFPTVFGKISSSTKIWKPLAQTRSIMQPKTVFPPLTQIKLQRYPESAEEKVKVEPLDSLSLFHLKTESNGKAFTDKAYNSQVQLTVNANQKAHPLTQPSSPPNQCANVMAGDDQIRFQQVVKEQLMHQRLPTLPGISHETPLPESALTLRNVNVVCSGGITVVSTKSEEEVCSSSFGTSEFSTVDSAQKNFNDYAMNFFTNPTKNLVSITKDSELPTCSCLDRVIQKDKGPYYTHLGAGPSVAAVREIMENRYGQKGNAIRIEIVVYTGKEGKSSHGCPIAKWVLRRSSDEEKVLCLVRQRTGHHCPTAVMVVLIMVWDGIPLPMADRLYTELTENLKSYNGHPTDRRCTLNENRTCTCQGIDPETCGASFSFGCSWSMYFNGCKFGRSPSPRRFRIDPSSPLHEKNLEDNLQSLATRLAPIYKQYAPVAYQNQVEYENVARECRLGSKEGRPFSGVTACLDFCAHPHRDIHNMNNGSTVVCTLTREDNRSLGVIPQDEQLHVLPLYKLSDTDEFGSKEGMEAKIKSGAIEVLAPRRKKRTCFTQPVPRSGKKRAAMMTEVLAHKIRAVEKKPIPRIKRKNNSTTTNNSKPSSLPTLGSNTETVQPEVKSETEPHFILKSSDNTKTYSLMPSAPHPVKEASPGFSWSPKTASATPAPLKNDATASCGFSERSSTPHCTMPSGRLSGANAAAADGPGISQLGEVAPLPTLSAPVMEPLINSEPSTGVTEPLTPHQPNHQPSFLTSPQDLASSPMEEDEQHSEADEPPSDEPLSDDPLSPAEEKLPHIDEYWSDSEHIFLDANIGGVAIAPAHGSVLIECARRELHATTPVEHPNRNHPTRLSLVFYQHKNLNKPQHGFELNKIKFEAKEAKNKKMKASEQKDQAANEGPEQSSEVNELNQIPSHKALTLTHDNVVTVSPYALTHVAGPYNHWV
# UniProt Q15813: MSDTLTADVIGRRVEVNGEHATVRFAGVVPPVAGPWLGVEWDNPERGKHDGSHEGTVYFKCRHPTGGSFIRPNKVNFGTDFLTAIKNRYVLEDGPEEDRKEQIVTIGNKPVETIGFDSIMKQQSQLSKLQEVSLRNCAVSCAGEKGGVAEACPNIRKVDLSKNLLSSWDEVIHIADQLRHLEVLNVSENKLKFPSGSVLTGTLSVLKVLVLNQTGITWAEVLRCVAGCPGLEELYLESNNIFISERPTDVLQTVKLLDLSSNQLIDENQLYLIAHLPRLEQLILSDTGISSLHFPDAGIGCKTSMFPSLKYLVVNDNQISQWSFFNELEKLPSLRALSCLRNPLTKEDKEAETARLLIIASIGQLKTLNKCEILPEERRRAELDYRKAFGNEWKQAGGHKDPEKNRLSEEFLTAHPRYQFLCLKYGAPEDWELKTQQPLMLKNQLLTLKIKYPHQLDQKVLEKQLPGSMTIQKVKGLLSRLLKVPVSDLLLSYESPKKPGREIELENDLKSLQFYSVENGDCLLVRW
# UniProt Q16594, whole entry, looked up: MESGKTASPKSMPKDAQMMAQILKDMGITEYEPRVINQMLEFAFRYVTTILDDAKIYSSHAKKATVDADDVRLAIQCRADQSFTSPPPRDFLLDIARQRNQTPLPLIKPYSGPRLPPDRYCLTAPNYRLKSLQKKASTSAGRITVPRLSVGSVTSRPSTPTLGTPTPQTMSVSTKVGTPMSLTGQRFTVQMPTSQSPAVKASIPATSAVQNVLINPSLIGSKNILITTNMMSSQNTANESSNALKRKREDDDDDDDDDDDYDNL
# Some of the results follow.
# Compound: Cc1nc(Nc2n[nH]c3c2CN(C(=O)N[C@H](CN(C)C)c2ccccc2)C3(C)C)c2sccc2n1
# Test: log2 fold change, soluble protein after heating vs DMSO (PISA); higher = thermal stabilisation; K562 lysate, 10 uM; active = over 0.2 and 3.5 SD of the protein, either way, in both replicates (recomputed)
# How it was run: (§1)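 A 30 min treatment with 10 μM compound was applied to crude K562 extract at 1 mg/mL protein in PBS pH 7.4 with 1 mM MgCl2. Heating for 3 min spanned 48°C-58°C, after which aliquots were pooled, adjusted to 0.5% NP-40 at 4°C and spun at 21,000xg for 90 min. TMTpro 16plex LC-MS/MS of the supernatant, with channel sums equalised, gave values recorded as log-two fold change in thermal stability against solvent controls, from duplicates.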
row,Target,log2 fold change
1,TBC1D13 (UniProt Q9NVG8),inactive: -0.038
2,TBC1D2 (UniProt Q9BYX2),inactive: -0.024
3,TEX264 (UniProt Q9Y6I9),inactive: 0.043
4,TANGO6 (UniProt Q9C0B7),inactive: -0.056
5,TAOK3 (UniProt Q9H2K8),inactive: 0.019
6,TANK (UniProt Q92844),active: 0.461
7,TBC1D15 isoform 3 (UniProt Q8TC07),inactive: 0.021
8,TEX10 (UniProt Q9NXF1),inactive: -0.049
9,TBC1D2B (UniProt Q9UPU7),inactive: 0.038
10,TAF6L (UniProt Q9Y6J9),inactive: 0.012
11,TAOK1 (UniProt Q7L7X3),inactive: 0.015
12,TBP (UniProt P20226),inactive: -0.037
13,TARS2 (UniProt Q9BW92),inactive: -0.019
14,TERF2 (UniProt Q15554),inactive: 0.021
15,TBCK (UniProt Q8TEA7),inactive: -0.14
16,TBC1D22B (UniProt Q9NU19),inactive: -0.063
17,TBC1D8B (UniProt Q0IIM8),inactive: -0.035
18,TBC1D10A (UniProt Q9BXI6),inactive: -0.01
19,TFIP11 (UniProt Q9UBB9),inactive: 0.003
20,TFDP1 (UniProt Q14186),inactive: 0.004
21,"TEPSIN, A0A1B0GV70",inactive: 0.019
22,TESC (UniProt Q96BS2),inactive: -0.025
23,TECR (UniProt Q9NZ01),inactive: 0.018
24,TET1 (UniProt Q8NFU7),inactive: -0.023
25,TFRC (UniProt P02786),inactive: -0.02
26,TBCE (UniProt Q15813),inactive: -0.008
27,TAF8 isoform 2 (UniProt Q7Z7C8),inactive: 0.087
28,TBCC (UniProt Q15814),inactive: -0.012
29,TAF9 (UniProt Q16594),inactive: 0.049
30,TBL3 (UniProt Q12788),inactive: 0.025

# Compound: Cc1nc(Nc2ncc(C(=O)Nc3c(C)cccc3Cl)s2)cc(N2CCN(CCO)CC2)n1 [dasatinib]
# Test: as above
# How it was run: as §1
row,Target,log2 fold change
1,TBC1D13 (UniProt Q9NVG8),inactive: -0.021
2,TBC1D2 (UniProt Q9BYX2),inactive: 0.027
3,TEX264 (UniProt Q9Y6I9),inactive: 0.045
4,TANGO6 (UniProt Q9C0B7),inactive: -0.006
5,TAOK3 (UniProt Q9H2K8),inactive: -0.012
6,TANK (UniProt Q92844),inactive: 0.069
7,TBC1D15 isoform 3 (UniProt Q8TC07),inactive: -0.041
8,TEX10 (UniProt Q9NXF1),inactive: -0.14
9,TBC1D20 isoform 3 (UniProt Q96BZ9),inactive: 0.027
10,TBC1D2B (UniProt Q9UPU7),inactive: -0.008
11,TAF6L (UniProt Q9Y6J9),inactive: -0.118
12,TAOK1 (UniProt Q7L7X3),inactive: -0.035
13,TBP (UniProt P20226),inactive: -0.028
14,TARS2 (UniProt Q9BW92),inactive: -0.039
15,TERF2 (UniProt Q15554),inactive: -0.03
16,TBCK (UniProt Q8TEA7),inactive: 0.016
17,TCEAL4 isoform 2 (UniProt Q96EI5),inactive: 0.029

row,Target,log2 fold change
1,TBC1D22B (UniProt Q9NU19),inactive: -0.013
2,TBC1D8B (UniProt Q0IIM8),inactive: 0.01
3,TBC1D10A (UniProt Q9BXI6),inactive: -0.089
4,TFIP11 (UniProt Q9UBB9),inactive: -0.059
5,TFDP1 (UniProt Q14186),inactive: -0.018
6,"TEPSIN, A0A1B0GV70",inactive: -0.008
7,TESC (UniProt Q96BS2),inactive: 0.053
8,TECR (UniProt Q9NZ01),inactive: -0.062
9,TET1 (UniProt Q8NFU7),inactive: -0.047
10,TFRC (UniProt P02786),inactive: 0
11,TBCE (UniProt Q15813),inactive: -0.012
12,TAF8 isoform 2 (UniProt Q7Z7C8),inactive: -0.101
13,TBCC (UniProt Q15814),inactive: -0.013
14,TAF9 (UniProt Q16594),inactive: -0.017
15,TAF9B (UniProt Q9HBM6),inactive: 0.002
16,TBL3 (UniProt Q12788),inactive: -0.013

# Compound: Cc1ncc(-c2ccnc(Nc3ccc(S(C)(=O)=O)cc3)n2)n1C(C)C
# Test: as above
# How it was run: as §1
row,Target,log2 fold change
1,TBC1D13 (UniProt Q9NVG8),inactive: -0.005
2,TBC1D2 (UniProt Q9BYX2),inactive: 0.01
3,TEX264 (UniProt Q9Y6I9),inactive: 0.474
4,TANGO6 (UniProt Q9C0B7),inactive: 0.019
5,TAOK3 (UniProt Q9H2K8),inactive: 0.05
6,TANK (UniProt Q92844),inactive: 0.04
7,TBC1D15 isoform 3 (UniProt Q8TC07),inactive: -0.001
8,TEX10 (UniProt Q9NXF1),inactive: 0.048
9,TBC1D2B (UniProt Q9UPU7),inactive: -0.07
10,TAF6L (UniProt Q9Y6J9),inactive: 0.021
11,TAOK1 (UniProt Q7L7X3),inactive: -0.02
12,TBP (UniProt P20226),inactive: -0.018
13,TARS2 (UniProt Q9BW92),inactive: 0.091
14,TERF2 (UniProt Q15554),inactive: -0.024
15,TBCK (UniProt Q8TEA7),inactive: -0.008
16,TBC1D22B (UniProt Q9NU19),inactive: -0.087
17,TBC1D8B (UniProt Q0IIM8),inactive: 0.015
18,TBC1D10A (UniProt Q9BXI6),inactive: 0.024
19,TFIP11 (UniProt Q9UBB9),inactive: 0.035
20,TFDP1 (UniProt Q14186),inactive: 0.059
21,"TEPSIN, A0A1B0GV70",inactive: 0.094
22,TESC (UniProt Q96BS2),inactive: 0.05
23,TECR (UniProt Q9NZ01),inactive: -0.011
24,TET1 (UniProt Q8NFU7),inactive: 0.313
25,TFRC (UniProt P02786),inactive: -0.006
26,TBCE (UniProt Q15813),inactive: -0.01
27,TAF8 isoform 2 (UniProt Q7Z7C8),inactive: -0.002
28,TBCC (UniProt Q15814),inactive: 0.036
29,TAF9 (UniProt Q16594),inactive: -0.003
30,TBL3 (UniProt Q12788),inactive: 0.016
